# Source: paper PMC8536758
# Chains of the proteins cited; added tags and fusions are not shown. Lines headed by an entry give the natural chain unless they say otherwise; changes in a name come on top. A line that says so, or that is headed by a name, gives the form on record, which may keep a tag or linker.
# 3 × FLAG-tagged ZSWIM8, stably expressed in C2C12 cells (A7E2V4, form named): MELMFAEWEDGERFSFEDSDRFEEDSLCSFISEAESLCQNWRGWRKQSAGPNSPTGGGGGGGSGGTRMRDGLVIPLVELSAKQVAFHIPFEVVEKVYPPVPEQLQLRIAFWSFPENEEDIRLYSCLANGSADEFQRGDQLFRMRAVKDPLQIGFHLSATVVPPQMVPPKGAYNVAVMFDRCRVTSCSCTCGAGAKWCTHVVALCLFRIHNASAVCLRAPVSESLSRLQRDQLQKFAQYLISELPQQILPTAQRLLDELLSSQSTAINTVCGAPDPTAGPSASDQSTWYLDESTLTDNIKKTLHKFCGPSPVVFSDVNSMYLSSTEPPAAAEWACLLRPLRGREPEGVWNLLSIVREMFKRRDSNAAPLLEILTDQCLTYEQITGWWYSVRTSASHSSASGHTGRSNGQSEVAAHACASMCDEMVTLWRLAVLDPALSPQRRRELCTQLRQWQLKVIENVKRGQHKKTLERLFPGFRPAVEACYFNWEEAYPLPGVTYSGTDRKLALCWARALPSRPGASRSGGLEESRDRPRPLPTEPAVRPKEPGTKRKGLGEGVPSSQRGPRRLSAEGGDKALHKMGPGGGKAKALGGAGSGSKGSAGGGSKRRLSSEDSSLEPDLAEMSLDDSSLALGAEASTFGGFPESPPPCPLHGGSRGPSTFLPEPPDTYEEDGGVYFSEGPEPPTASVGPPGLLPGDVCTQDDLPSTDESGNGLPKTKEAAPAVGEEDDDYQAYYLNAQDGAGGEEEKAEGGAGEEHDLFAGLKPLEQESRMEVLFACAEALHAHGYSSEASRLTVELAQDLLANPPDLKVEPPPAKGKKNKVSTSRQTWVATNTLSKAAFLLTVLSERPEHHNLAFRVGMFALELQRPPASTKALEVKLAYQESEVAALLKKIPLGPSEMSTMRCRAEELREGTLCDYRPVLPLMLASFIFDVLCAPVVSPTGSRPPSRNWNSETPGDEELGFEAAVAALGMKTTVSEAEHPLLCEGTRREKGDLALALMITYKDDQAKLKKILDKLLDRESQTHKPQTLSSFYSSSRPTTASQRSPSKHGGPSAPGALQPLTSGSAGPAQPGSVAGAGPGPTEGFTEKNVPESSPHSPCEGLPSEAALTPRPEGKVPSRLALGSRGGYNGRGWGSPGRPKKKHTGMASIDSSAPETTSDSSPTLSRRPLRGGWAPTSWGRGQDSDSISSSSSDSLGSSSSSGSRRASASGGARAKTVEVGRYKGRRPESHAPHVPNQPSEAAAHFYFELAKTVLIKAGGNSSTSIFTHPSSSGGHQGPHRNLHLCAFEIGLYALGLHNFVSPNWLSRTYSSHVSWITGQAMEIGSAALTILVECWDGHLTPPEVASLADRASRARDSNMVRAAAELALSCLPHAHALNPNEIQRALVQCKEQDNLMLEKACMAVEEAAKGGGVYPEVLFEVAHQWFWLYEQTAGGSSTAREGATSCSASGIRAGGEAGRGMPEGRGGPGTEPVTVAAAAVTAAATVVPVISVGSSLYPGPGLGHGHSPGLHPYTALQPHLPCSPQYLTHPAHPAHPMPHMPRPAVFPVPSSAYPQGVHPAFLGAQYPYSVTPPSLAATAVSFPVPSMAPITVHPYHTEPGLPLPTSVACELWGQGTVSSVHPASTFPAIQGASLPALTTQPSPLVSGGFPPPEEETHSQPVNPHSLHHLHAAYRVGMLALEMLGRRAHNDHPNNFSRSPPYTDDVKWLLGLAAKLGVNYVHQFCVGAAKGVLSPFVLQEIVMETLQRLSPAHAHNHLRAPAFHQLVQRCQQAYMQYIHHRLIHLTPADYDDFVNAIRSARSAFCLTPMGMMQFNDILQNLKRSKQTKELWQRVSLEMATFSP
# UniProt Q3UHH1: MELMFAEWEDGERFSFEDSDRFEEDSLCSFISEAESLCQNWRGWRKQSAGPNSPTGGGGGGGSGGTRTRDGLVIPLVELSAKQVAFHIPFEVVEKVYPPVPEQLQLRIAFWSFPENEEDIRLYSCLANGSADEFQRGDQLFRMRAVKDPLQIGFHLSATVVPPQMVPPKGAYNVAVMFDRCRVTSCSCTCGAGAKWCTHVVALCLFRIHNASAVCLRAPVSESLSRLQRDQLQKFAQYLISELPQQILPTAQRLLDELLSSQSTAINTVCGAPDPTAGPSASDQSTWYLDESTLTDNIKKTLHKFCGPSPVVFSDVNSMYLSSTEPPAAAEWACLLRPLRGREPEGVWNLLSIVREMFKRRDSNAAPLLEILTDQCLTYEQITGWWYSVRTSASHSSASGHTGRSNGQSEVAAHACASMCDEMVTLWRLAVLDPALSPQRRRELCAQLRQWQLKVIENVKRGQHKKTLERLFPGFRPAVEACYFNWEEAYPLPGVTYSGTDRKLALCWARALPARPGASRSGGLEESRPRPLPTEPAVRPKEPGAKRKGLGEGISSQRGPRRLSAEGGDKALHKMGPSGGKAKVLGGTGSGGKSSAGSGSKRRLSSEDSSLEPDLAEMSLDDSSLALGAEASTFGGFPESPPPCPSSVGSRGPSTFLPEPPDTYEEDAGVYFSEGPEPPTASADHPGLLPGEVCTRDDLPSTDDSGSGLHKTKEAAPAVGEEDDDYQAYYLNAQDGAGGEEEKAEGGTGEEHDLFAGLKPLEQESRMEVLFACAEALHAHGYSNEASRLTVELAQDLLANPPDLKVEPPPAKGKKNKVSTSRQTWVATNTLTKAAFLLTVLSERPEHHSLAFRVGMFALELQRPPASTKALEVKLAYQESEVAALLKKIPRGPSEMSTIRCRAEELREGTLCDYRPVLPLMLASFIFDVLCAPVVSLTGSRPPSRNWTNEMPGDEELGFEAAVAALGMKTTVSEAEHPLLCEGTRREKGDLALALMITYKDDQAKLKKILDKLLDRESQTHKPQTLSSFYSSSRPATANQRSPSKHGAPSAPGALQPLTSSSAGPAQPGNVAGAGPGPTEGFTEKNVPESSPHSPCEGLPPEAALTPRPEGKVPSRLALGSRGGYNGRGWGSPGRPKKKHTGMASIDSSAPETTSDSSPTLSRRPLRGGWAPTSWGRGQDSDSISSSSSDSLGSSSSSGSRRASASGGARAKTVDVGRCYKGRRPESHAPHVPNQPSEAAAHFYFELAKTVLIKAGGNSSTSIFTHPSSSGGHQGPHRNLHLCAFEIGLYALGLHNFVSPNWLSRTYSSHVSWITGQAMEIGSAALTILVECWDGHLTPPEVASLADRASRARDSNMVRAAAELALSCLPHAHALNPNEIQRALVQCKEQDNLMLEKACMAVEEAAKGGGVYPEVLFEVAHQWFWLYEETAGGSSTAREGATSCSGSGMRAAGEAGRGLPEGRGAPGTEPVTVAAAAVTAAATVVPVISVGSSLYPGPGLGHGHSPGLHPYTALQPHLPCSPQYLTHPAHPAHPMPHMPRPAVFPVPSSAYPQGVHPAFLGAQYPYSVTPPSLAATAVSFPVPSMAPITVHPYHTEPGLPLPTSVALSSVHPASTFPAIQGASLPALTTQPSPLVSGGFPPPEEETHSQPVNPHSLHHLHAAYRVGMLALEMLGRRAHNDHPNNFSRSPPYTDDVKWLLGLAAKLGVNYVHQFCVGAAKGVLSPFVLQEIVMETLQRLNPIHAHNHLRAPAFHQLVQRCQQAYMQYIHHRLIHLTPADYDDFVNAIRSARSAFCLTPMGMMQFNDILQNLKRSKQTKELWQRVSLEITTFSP
# UniProt Q9D4H8: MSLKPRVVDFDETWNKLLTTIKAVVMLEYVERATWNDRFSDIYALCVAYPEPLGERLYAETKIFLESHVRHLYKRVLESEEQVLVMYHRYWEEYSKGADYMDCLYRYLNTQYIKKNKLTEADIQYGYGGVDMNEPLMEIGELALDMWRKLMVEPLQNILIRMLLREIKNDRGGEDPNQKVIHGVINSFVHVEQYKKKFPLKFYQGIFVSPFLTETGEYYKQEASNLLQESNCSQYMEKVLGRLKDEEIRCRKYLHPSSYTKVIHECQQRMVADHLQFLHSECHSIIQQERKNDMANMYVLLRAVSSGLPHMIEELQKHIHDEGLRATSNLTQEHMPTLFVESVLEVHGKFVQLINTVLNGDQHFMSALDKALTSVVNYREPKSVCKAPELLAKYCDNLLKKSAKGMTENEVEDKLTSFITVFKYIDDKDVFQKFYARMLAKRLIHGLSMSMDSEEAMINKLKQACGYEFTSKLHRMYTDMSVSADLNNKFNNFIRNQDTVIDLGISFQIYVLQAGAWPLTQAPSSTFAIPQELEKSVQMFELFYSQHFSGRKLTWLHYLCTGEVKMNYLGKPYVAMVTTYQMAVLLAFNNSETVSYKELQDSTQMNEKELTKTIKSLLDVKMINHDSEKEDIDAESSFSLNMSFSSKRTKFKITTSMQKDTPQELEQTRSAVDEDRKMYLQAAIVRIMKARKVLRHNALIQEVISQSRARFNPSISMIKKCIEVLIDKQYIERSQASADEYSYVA
# No constants are given. Whether binding was seen depends on the method and setting. Binding seen in cells or lysates may run through a third protein. Some entries that bind do so weakly or less than the wild type.
# B1: BCL2 adenovirus E1B 19 kDa interacting protein 2 (Bnip-2), endogenous in C2C12 cells (protein, UniProt O54940 1-326)
# chain: MEGVELKEEWQDEDFPIPLPEDDSIEADTLDGTDPDRQPGSLEVNGNKVRKKLMAPDISLTLDPGEDSLWSDDLDEAGEVDLEGLDTPSENSDEFEWEDDLPKPKTTEVIRKGSITEYTATEEKGDGRRWRMFRIGEQDHRVDMKAIEPYKKVISHGGYYGDGLNAIVVFAVCFMPESGQPNYRYLMDNLFKYVIGTLELLVAENYMIIYLNGATTRRKMPSLGWLRRCYQQIDRRLRKNLKSLIIVHPSWFIRTLLAVTRPFISSKFSQKIRYVFNLAELAELVPMEYVGIPECIKQYEEEKFKKRQKRVDQELNGKQEPPKSEQ
# B2: c-Jun NH2-terminal kinase (JNK)-associated leucine zipper protein (JLP), endogenous in C2C12 cells (protein, UniProt Q58A65 1-1321)
# chain: MELEDGVVYQEEPGGSGAVMSERVSGLAGSIYREFERLIGRYDEEVVKELMPLVVAVLENLDSVFAQDQEHQVELELLRDDNEQLITQYEREKALRKHAEEKFIEFEDSQEQEKKDLQTRVESLESQTRQLELKAKNYADQISRLEEREAELKKEYNALHQRHTEMIHNYMEHLERTKLHQLSGSDQLEATAHSRIRKERPISLGIFPLPAGDGLLTPDTQKGGETPGSEQWKFQELSQPRSHTSLKVSHSPEPPKAVEQEDELSDISQGGSKATTPASTANSDVSAIPPDTPSKEDNEGFVKGTDTSNKSEISKHIEVQVAQETRNVSTESGENEEKSEVQAIIESTPELDMDKDLSGYKGSSTPTKGIENKAFDRNTESLFEELSSAGSGLIGDVDEGADLLGMGREVENLILENTQLLETKNALNVVKNDLIAKVDELTCEKDVLQGELEAVKQAKLKLEDKNRELEEELRKARAEAEDARQKAKDDDDSDIPTAQRKRFTRVEMARVLMERNQYKERLMELQEAVRWTEMIRASRENPAMQEKKRSSIWQFFSRLFSSSSNATKKPEPPVNLKYNAPTSHVTPSVKKRSSTLSQLPGDKSKAFDFLSEETEASLASRREQKREQYRQVKAHVQKEDGRVQAFGWSLPQKYKQVANGQGETKMKNLPVPVYLRPLDEKDASMKLWCAVGVNLSGGKTRDGGSVVGASVFYKDIAGLDTEGSKQRSASQSSLDKLDQELKEQQKEFKNQEELSSQVWICTSTHSTTKVIIIDAVQPGNILDSFTVCNSHVLCIASVPGARETDYPAGEELSESGQVDKASLCGSMTSNSSAEMDSLLGGITVVGCSTEGLTGAATSPSTNGASPVIEKPPEMETENSEVDENIPTAEEATEATEGNAGSTEDTVDISQPGVYTEHVFTDPLGVQIPEDLSPVFQSSNDSDVYKDQISVLPNEQDLAREEAQKMSSLLPTMWLGAQNGCLYVHSSVAQWRKCLHSIKLKDSILSIVHVKGIVLVALADGTLAIFHRGVDGQWDLSNYHLLDLGRPHHSIRCMTVVHDKVWCGYRNKIYVVQPKAMKIEKSFDAHPRKESQVRQLAWVGDGVWVSIRLDSTLRLYHAHTYQHLQDVDIEPYVSKMLGTGKLGFSFVRITALMVSCNRLWVGTGNGVIISIPLTETNKTSGTPGNRPGSVIRVYGDENSDKVTPGTFIPYCSMAHAQLCFHGHRDAVKFFVAVPGQVISPQSSSGGADLTADKAGSSAQEPSSQTPLKSMLVISGGEGYIDFRMGDEGGESELLGEDLPLEPSVTKAERSHLIVWQVMCGNE
# B3: Cdon-Δ1043-1073, which lacks amino acids 1043–1073 (receptor, UniProt Q32MD9)
# chain: DLAPYFISEPLSAVQKLGRPVVLHCSAKPVTARISWLHNGKRLDRNTEQIKIHRGTLTILSLNPSLSGCYQCVANNSVGAVVSGPATVSAAALGDFDSSTMHVITAEEKNTGFIGCRVPESNPKAEVRYKIRGKWLKHSTGNYIILPSGNLQVLNVSSKDKGSYKCAAYNPVTSELKVEPTGRKLLVSRPSSNGFHILHPALSQALAVLPHSPVTLECVVSGVPASQVYWLKDGQDAVAGSNWRRLYSHLATASIDPADSGNYSCVVGNKSGDVKHVTYMVNVLEHASISKGLHDQKVSLGATVHFTCDVHGNPAPNRTWFHNAQPIHPSSRHLTEGNVLKITRVVMEDSGLYQCVADNGIGFMQSTGRLQIEQDSGWKPVIVTAPANIEVMDGDFVTLSCNATGVPVPVIHWYGRHGLITSHPSQVLRSKPRKSHLFRPGDLDLEPVYLIMSQAGSSSLSIQAVTLEHAGKYTCEATNKHGSTQSEAFLTVVPFETNTKAESVTPSEASQNDERDPQDGSESSLLNLFPVKVHPSGVELPAERNASVPDAPNILSPPQTHMPDTYNLVWRAGRDGGMPINAYFVKYRKLDDGSGAVGSWHTVRVPGSENELHLTELEPSSLYEVLMVARSAVGEGQPAMLTFRTSKEKMASSKNTQASFPPVGVPKRPVTAEASNSNFGVVLTDSSRHSGVPEAPDRPTISMASETSVYVTWIPRANGGSPITAFKVEYKRMRTSDWLVAAEDIPPSKLSVEVRSLEPGSIYKFRVIAINHYGESFRSSASRPYQVAGFPNRFSNRPITGPHIAYTEAVSDTQIMLKWTYVPSSNNNTPIQGFYIYYRPTDSDNDSDYKRDVVEGSKQWHTIGHLQPETSYDIKMQCFNEGGESEFSNVMICETKVKRVPGASDYPVKELSTPPSSSGNAGNVGPATSPARSSDMLYLIVGCVLGVMVLILMVFIALCLWKSRQQSTIQKYDPPGYLYQGSEINGQMVEYTTLSGAARINGSVHGGFLSNGCSHLHHEFEHPHHLVNSGGVYTAVPQMDPLECINCRNCRNNNRCFTKTNSPLPVVPVVASYPQGGLEMKPLNAMKVPVCPASTVPDHGQLPDDCVKDSVAPIPTQHTCCQDNISDINSDSTEDTAEFSRGDSSGHSEAEDKVFSWNPLILSPVLEDCGEKTARSPPGPPLDGLSVVLQQAQET
# B4: endogenous Cdon of C2C12 cells (receptor, UniProt Q32MD9 25-1250)
# chain: DLAPYFISEPLSAVQKLGRPVVLHCSAKPVTARISWLHNGKRLDRNTEQIKIHRGTLTILSLNPSLSGCYQCVANNSVGAVVSGPATVSAAALGDFDSSTMHVITAEEKNTGFIGCRVPESNPKAEVRYKIRGKWLKHSTGNYIILPSGNLQVLNVSSKDKGSYKCAAYNPVTSELKVEPTGRKLLVSRPSSNGFHILHPALSQALAVLPHSPVTLECVVSGVPASQVYWLKDGQDAVAGSNWRRLYSHLATASIDPADSGNYSCVVGNKSGDVKHVTYMVNVLEHASISKGLHDQKVSLGATVHFTCDVHGNPAPNRTWFHNAQPIHPSSRHLTEGNVLKITRVVMEDSGLYQCVADNGIGFMQSTGRLQIEQDSGWKPVIVTAPANIEVMDGDFVTLSCNATGVPVPVIHWYGRHGLITSHPSQVLRSKPRKSHLFRPGDLDLEPVYLIMSQAGSSSLSIQAVTLEHAGKYTCEATNKHGSTQSEAFLTVVPFETNTKAESVTPSEASQNDERDPQDGSESSLLNLFPVKVHPSGVELPAERNASVPDAPNILSPPQTHMPDTYNLVWRAGRDGGMPINAYFVKYRKLDDGSGAVGSWHTVRVPGSENELHLTELEPSSLYEVLMVARSAVGEGQPAMLTFRTSKEKMASSKNTQASFPPVGVPKRPVTAEASNSNFGVVLTDSSRHSGVPEAPDRPTISMASETSVYVTWIPRANGGSPITAFKVEYKRMRTSDWLVAAEDIPPSKLSVEVRSLEPGSIYKFRVIAINHYGESFRSSASRPYQVAGFPNRFSNRPITGPHIAYTEAVSDTQIMLKWTYVPSSNNNTPIQGFYIYYRPTDSDNDSDYKRDVVEGSKQWHTIGHLQPETSYDIKMQCFNEGGESEFSNVMICETKVKRVPGASDYPVKELSTPPSSSGNAGNVGPATSPARSSDMLYLIVGCVLGVMVLILMVFIALCLWKSRQQSTIQKYDPPGYLYQGSEINGQMVEYTTLSGAARINGSVHGGFLSNGCSHLHHKGPSGVNGTLSGNINGGLYSAHTNSLTRACVEFEHPHHLVNSGGVYTAVPQMDPLECINCRNCRNNNRCFTKTNSPLPVVPVVASYPQGGLEMKPLNAMKVPVCPASTVPDHGQLPDDCVKDSVAPIPTQHTCCQDNISDINSDSTEDTAEFSRGDSSGHSEAEDKVFSWNPLILSPVLEDCGEKTARSPPGPPLDGLSVVLQQAQET
# Key:
# [1] = target: T1, endogenous Cdon of C2C12 cells (mouse (endogenous in C2C12)) (UniProt Q32MD9); assay: co-IP; endogenous proteins; C2C12 cells differentiated for 4 days; lysate immunoprecipitated with anti-Cdon-C or control antibody, immunoblot with anti-ZSWIM8 and anti-Cdon-C
# T1 sequence: B4 chain
# [2] = target: 3 × FLAG-tagged ZSWIM8, stably expressed in C2C12 cells (human) (UniProt A7E2V4); assay: co-IP; C2C12 cells stably expressing 3 × FLAG-ZSWIM8, with or without differentiation for 1 or 2 days; lysate immunoprecipitated with anti-FLAG antibody, immunoblot with anti-Cdon-N, Cdon-C, Bnip-2, JLP, FLAG or Cul2 antibody
# [3] = target: 3 × FLAG-tagged ZSWIM8 (zinc finger SWIM type containing 8), expressed in HEK293T cells (human) (UniProt A7E2V4); assay: co-IP; HEK293T cells co-transfected with 3 × FLAG-ZSWIM8 and non-tagged Cdon (FL or mutants), cultured 2 days; lysate (50 mM Tris-HCl pH 7.4, 150 mM NaCl, 1% Triton X-100) immunoprecipitated with anti-FLAG antibody and Protein A Sepharose at 4 °C, immunoblot with anti-Cdon-N
Molecule,binding [2],other results
endogenous ZSWIM8 of C2C12 cells (from UniProt Q3UHH1 1-1832),,binding [1]: binds
"Cullin 2 (Cul2), endogenous in C2C12 cells (from UniProt Q9D4H8 1-745)",binds,
B1,binds,
B2,binds,
B3,,binding [3]: binds
B4,binds,
